{"source": "PubChem BioAssay AID1259425 (University of Nebraska Medical Center, 2018)", "aim": "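Seek colon cancer weak points whose silencing resembles KSR1 loss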 (primary screen)", "cell system": "HCT116 human colon cancer cells", "reagents": "siRNA pool against human genes, 50 nM siRNA", "measurement": "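After 50 nM siRNA pool, branched-DNA assay measures six marker transcripts per well, minus blank, normalised to the geometric mean of two housekeeping transcripts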", "direction": "BNIP3L mRNA: higher = more BNIP3L transcript after knockdown", "note": "The whole screen tested about 14,000 reagents; shown is an unselected part. Not all columns of the deposit are shown. Reagent sequences are not shown. Not given: the time to read-out."}
{"Gene":"MRPL38","PubChem SID":"SID364003997","BNIP3L mRNA, set 1":0.15}
{"Gene":"TERF2IP","PubChem SID":"SID364001299","BNIP3L mRNA, set 1":0.0374}
{"Gene":"ZCCHC10","PubChem SID":"SID364000431","BNIP3L mRNA, set 1":0.12}
{"Gene":"DDR1","PubChem SID":"SID363993166","BNIP3L mRNA, set 1":0.163}
{"Gene":"NFIL3","PubChem SID":"SID363996294","BNIP3L mRNA, set 1":0.0802}
{"Gene":"SPSB2","PubChem SID":"SID364004109","BNIP3L mRNA, set 1":0.185}
{"Gene":"CLCF1","PubChem SID":"SID363998370","BNIP3L mRNA, set 1":0.116}
{"Gene":"NINJ2","PubChem SID":"SID364000177","BNIP3L mRNA, set 1":0.101}
{"Gene":"ENTREP3","PubChem SID":"SID363997380","BNIP3L mRNA, set 1":0.141}
{"Gene":"GSTM1","PubChem SID":"SID363991883","BNIP3L mRNA, set 1":0.0876}
{"Gene":"TRIM21","PubChem SID":"SID363994281","BNIP3L mRNA, set 1":0.141}
{"Gene":"SMARCD3","PubChem SID":"SID363994223","BNIP3L mRNA, set 1":0.043}
{"Gene":"PTGDS","PubChem SID":"SID363992238","BNIP3L mRNA, set 1":0.118}
{"Gene":"NDC1","PubChem SID":"SID364000769","BNIP3L mRNA, set 1":0.101}
{"Gene":"FBXO4","PubChem SID":"SID363998115","BNIP3L mRNA, set 1":0.084}
{"Gene":"UBTD1","PubChem SID":"SID364003184","BNIP3L mRNA, set 1":0.28}
{"Gene":"CORO2B","PubChem SID":"SID363996934","BNIP3L mRNA, set 1":0.0821}
{"Gene":"SLC71A2","PubChem SID":"SID364004051","BNIP3L mRNA, set 1":0.154}
{"Gene":"TRIM37","PubChem SID":"SID363999403","BNIP3L mRNA, set 1":0.0714}
{"Gene":"ATP6V1B2","PubChem SID":"SID363992915","BNIP3L mRNA, set 1":0.185}
{"Gene":"SLC12A3","PubChem SID":"SID363991671","BNIP3L mRNA, set 1":0.0778}
{"Gene":"AFG2B","PubChem SID":"SID364002720","BNIP3L mRNA, set 1":0.245}
{"Gene":"VEGFD","PubChem SID":"SID363995451","BNIP3L mRNA, set 1":0.153}
{"Gene":"SEMG1","PubChem SID":"SID363994157","BNIP3L mRNA, set 1":0.201}
{"Gene":"ENSA","PubChem SID":"SID363995418","BNIP3L mRNA, set 1":0.102}
{"Gene":"DLG4","PubChem SID":"SID363992642","BNIP3L mRNA, set 1":0.0402}
{"Gene":"DMRTA2","PubChem SID":"SID364005032","BNIP3L mRNA, set 1":0.0625}
{"Gene":"LY6G6E","PubChem SID":"SID364002767","BNIP3L mRNA, set 1":0.108}

In a second layout: 4 of the entries above
| Gene | PubChem SID | BNIP3L mRNA, set 1 |
| --- | --- | --- |
| UBTD1 | SID364003184 | 0.28 |
| CORO2B | SID363996934 | 0.0821 |
| SLC71A2 | SID364004051 | 0.154 |
| TRIM37 | SID363999403 | 0.0714 |
